## Cell number after 72 h of treatment

Values as published with doi:10.1371/journal.pone.0140310, rounded.

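Human melanoma cells were exposed to a pair of drugs for 72 h in 1,536-well plates and read by automated microscopy after fixing and staining. Values are the number of DAPI-stained nuclei as a percentage of the DMSO control: 100 is no effect, lower means fewer cells. Every drug was used at one fixed concentration, the lower of two screened (a fifth of the higher). These are primary screening values without error estimates.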 An unselected part of the screen is shown. An entry leaves out what has no value listed here. A dash means that no value is listed here.

Compounds and concentrations:
CP-690550 (1 µM): C[C@@H]1CCN(C(=O)CC#N)C[C@@H]1N(C)c1ncnc2[nH]ccc12
KU-55933 (1 µM): O=c1cc(-c2cccc3c2Sc2ccccc2S3)oc(N2CCOCC2)c1
indole-3-carbinol (0.8 µM): OCc1c[nH]c2ccccc12
MK-1775 (0.02 µM): C=CCn1c(=O)c2cnc(Nc3ccc(N4CCN(C)CC4)cc3)nc2n1-c1cccc(C(C)(C)O)n1
SNS-032 (0.01 µM): CC(C)(C)c1cnc(CSc2cnc(NC(=O)C3CCNCC3)s2)o1
pazopanib (0.4 µM): Cc1ccc(Nc2nccc(N(C)c3ccc4c(C)n(C)nc4c3)n2)cc1S(N)(=O)=O
MK-2206 (0.4 µM): NC1(c2ccc(-c3nc4ccn5c(=O)[nH]nc5c4cc3-c3ccccc3)cc2)CCC1
XAV939 (2 µM): Oc1nc(-c2ccc(C(F)(F)F)cc2)nc2c1CSCC2
enzastaurin (0.8 µM): Cn1cc(C2=C(c3cn(C4CCN(Cc5ccccn5)CC4)c4ccccc34)C(=O)NC2=O)c2ccccc21
crizotinib (0.2 µM): C[C@@H](Oc1cc(-c2cnn(C3CCNCC3)c2)cnc1N)c1c(Cl)ccc(F)c1Cl
tamatinib (0.4 µM): COc1cc(Nc2ncc(F)c(Nc3ccc4c(n3)NC(=O)C(C)(C)O4)n2)cc(OC)c1OC
perifosine (0.4 µM): CCCCCCCCCCCCCCCCCCOP(=O)([O-])OC1CC[N+](C)(C)CC1
palbociclib (0.04 µM): CC(=O)c1c(C)c2cnc(Nc3ccc(N4CCNCC4)cn3)nc2n(C2CCCC2)c1=O
PF-562271 (0.08 µM): CN(c1ncccc1CNc1nc(Nc2ccc3c(c2)CC(=O)N3)ncc1C(F)(F)F)S(C)(=O)=O
dasatinib (0.004 µM): Cc1nc(Nc2ncc(C(=O)Nc3c(C)cccc3Cl)s2)cc(N2CCN(CCO)CC2)n1
darinaparsin (0.4 µM): C[As](C)SC[C@H](NC(=O)CC[C@H](N)C(=O)O)C(=O)NCC(=O)O
PLX4720 (0.08 µM): CCCS(=O)(=O)Nc1ccc(F)c(C(=O)c2c[nH]c3ncc(Cl)cc23)c1F
cediranib (0.4 µM): COc1cc2c(Oc3ccc4[nH]c(C)cc4c3F)ncnc2cc1OCCCN1CCCC1
gemcitabine (0.0004 µM): Nc1ccn([C@@H]2O[C@H](CO)[C@@H](O)C2(F)F)c(=O)n1
OSI-906 (0.4 µM): C[C@]1(O)C[C@@H](c2nc(-c3ccc4ccc(-c5ccccc5)nc4c3)c3c(N)nccn32)C1

Pair	IST-MEL1	G-361	C32	LOX IMVI	A2058	A101D	COLO 800	MEL-HO	COLO 829	LB2518-MEL
OSI-906 and enzastaurin	96.4	86.2	92.7	112	87.1	100	77.0	106	96.6	98.7
gemcitabine and cediranib	61.4	81.3	87.8	188	87.6	112	53.2	75.4	84.5	82.4
SNS-032 and pazopanib	-	-	96.0	-	-	-	-	-	-	-
gemcitabine and CP-690550	68.0	92.2	106	136	83.0	92.9	62.5	73.7	89.4	95.7
MK-1775 and gemcitabine	74.8	90.4	110	93.1	89.4	69.7	103	73.9	84.5	70.4
OSI-906 and darinaparsin	112	83.8	-	90.4	-	-	74.6	108	82.7	89.5
PLX4720 and CP-690550	-	-	75.0	-	107	86.8	-	-	-	-
perifosine and KU-55933	115	101	106	97.0	99.0	106	85.9	109	100	110
cediranib and MK-2206	-	-	106	-	98.9	93.9	-	-	-	-
MK-2206 and SNS-032	-	-	95.9	-	93.8	83.9	-	-	-	-
palbociclib and pazopanib	93.7	80.1	83.4	73.2	91.4	80.1	65.4	93.5	99.4	94.7
indole-3-carbinol and OSI-906	105	88.4	85.9	84.2	88.0	95.6	42.2	98.5	101	97.6
crizotinib and darinaparsin	93.5	87.0	92.0	101	95.2	100	110	95.9	96.1	104
pazopanib and MK-1775	-	-	118	-	100	72.7	-	-	-	-
PF-562271 and MK-1775	-	-	74.5	-	84.3	71.4	-	-	-	-
indole-3-carbinol and MK-2206	97.3	105	89.8	81.2	103	87.4	75.3	78.0	92.9	99.5
perifosine and crizotinib	98.1	113	105	69.0	88.7	114	88.5	98.4	97.7	107
dasatinib and SNS-032	-	-	94.4	-	80.8	90.5	-	-	-	-
tamatinib and crizotinib	-	-	79.2	-	87.2	75.9	-	-	-	-
indole-3-carbinol and crizotinib	92.7	91.1	95.9	163	105	106	101	91.7	91.2	95.9
gemcitabine and PF-562271	72.8	69.9	66.9	63.5	93.0	92.5	75.2	91.6	58.8	77.6
SNS-032 and crizotinib	90.7	97.0	73.3	149	91.3	89.9	94.1	94.6	102	104
crizotinib and CP-690550	101	90.8	122	103	119	99.4	110	107	112	95.5
dasatinib and crizotinib	-	-	81.1	-	73.9	96.9	-	-	-	-
indole-3-carbinol and perifosine	101	92.0	99.7	95.3	96.9	97.2	85.5	105	92.8	92.4
dasatinib and XAV939	61.3	87.7	-	52.9	-	-	108	78.1	65.1	84.1

Some entries from above, unchanged:

* PLX4720 and CP-690550 | C32: 75.0; A2058: 107; A101D: 86.8
* dasatinib and SNS-032 | C32: 94.4; A2058: 80.8; A101D: 90.5